Reference: patent publication US20110256127A1
Results are given in words; binding and its absence hold for the method and conditions named. Some results given as binding are weak or reduced against the parent protein; the word gives no strength.

Amino acid sequences for entries named in this document (tags omitted). A change or cut given only in a name is not applied to a line headed by its entry.
UniProt O75581: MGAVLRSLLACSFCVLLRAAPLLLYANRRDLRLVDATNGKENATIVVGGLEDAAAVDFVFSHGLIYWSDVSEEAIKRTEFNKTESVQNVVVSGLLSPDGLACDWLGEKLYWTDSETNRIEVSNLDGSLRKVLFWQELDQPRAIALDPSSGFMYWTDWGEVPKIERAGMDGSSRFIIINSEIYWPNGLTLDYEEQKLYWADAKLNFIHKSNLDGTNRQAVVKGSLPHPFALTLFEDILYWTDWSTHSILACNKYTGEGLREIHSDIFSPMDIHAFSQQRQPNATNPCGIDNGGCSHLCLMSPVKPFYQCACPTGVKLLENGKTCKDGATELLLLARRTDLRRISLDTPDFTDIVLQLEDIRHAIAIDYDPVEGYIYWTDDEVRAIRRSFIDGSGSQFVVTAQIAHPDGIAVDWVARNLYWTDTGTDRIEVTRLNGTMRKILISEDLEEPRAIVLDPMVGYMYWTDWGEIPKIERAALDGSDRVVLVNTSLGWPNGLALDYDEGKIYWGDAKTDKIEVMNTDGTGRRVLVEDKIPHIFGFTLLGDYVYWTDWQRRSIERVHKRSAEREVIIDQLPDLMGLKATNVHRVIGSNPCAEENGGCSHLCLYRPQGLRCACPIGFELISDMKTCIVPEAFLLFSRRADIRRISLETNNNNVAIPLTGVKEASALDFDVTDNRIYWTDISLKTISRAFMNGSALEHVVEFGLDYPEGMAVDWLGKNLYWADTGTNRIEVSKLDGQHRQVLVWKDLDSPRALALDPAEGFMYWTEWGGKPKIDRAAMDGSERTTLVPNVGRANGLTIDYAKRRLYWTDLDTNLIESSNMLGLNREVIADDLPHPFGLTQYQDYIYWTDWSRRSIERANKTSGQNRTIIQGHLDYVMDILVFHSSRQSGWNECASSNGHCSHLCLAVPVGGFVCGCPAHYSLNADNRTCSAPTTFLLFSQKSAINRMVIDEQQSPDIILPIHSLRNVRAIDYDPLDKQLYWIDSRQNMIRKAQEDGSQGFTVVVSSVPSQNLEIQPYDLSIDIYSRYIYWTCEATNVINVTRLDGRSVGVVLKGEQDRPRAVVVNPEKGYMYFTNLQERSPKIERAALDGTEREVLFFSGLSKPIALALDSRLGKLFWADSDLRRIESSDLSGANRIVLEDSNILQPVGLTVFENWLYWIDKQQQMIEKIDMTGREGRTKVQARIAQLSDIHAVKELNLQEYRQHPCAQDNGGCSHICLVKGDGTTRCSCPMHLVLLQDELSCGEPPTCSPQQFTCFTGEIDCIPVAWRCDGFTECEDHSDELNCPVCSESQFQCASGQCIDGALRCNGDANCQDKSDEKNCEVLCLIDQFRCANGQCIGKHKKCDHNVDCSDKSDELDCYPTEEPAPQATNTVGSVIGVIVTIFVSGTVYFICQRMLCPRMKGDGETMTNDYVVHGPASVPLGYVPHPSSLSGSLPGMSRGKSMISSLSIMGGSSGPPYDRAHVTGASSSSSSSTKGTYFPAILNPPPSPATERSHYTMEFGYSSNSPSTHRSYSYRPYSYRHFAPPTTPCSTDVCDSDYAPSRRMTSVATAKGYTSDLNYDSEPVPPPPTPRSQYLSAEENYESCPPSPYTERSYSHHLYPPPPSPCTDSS

Tests used:
[1] = molecular target: LRP6.E1-E4 protein (Homo sapiens (Human)) (UniProt O75581); assay: biolayer interferometry, immobilized LRP6 E1-E4; two antibodies added one after the other, in both orders; concentrations not given
[2] = molecular target: LRP6.E1-E4 protein (Homo sapiens (Human)) (UniProt O75581); assay: biolayer interferometry, immobilized biotinylated LRP6.E1-E4
[3] = molecular target: LRP6.E1-E4 protein (Homo sapiens (Human)) (UniProt O75581); assay: biolayer interferometry, sequential binding
[4] = molecular target: LRP6.E1-E4 protein (Homo sapiens (Human)) (UniProt O75581); assay: FACS competition, soluble LRP6 E1-E4 protein as competitor

Measured: binding

B1: YW211.31.57 antibody (antibody, human IgG1, kappa, V domains shown)
VH: EVQLVESGGGLVQPGGSLRLSCAASGFTFTSYYISWVRQAPGKGLEWVAEISPYSGSTYYADSVKGRFTISADTSKNTAYLQMNSLRAEDTAVYYCALRARPPIRLYPRGSVMDYWGQGTLVTVSS
VL: DIQMTQSPSSLSASVGDRVTITCRASQDVSTAVAWYQQKPGKAPKLLIYSASFLYSGVPSRFSGSGSGTDFTLTISSLQPEDFATYYCQQSYTLPTTFGQGTKVEIKR
binds: all assays above
